Source: patent US8609135B2, “Anthracycline derivatives” (Nuclisome AB, priority 2004, dated 2013)
At least one read-out could not be matched to a standard name with certainty. Marks after values point to notes of the source that are not given here.

Tested on: calf thymus DNA (CT DNA)
Assay: Fluorescence titration, binding to calf thymus DNA
Conditions: room temperature, BPES buffer pH 7, n=3
Description: Type 1 calf thymus DNA sodium salt (Sigma-Aldrich Co., St Louis, M.O., USA) was hydrated in BPES buffer (6 mM Na2HPO4, 2 mM NaH2PO4, 1 mM EDTA, 185 mM NaCl, pH 7) at a concentration of approximately 2 mg/ml and sonicated at approximately 8 μA in a MSE Soniprep 150 ultrasonic disintegrator (Integrated Services TCP Inc., Palisades Park, N.J., USA) for 30 min in a water bath on ice. The sample was then dialyzed for 48 h against BPES using Slide-A-Lyzer® dialysis cassettes (10,000 MWCO) (Pierce, Rockford, Ill., USA). The final DNA concentration was determined spectrophotometrically on a HP8453 spectrophotometer (Hewlett-Packard Company Houston Tex., USA) at a wavelength of 260 nm using an extinction coefficient of 12,824 M (bp)^−1 cm^−1.
Fluorescence titration experiments were performed on a SPEX 1680 Fluorolog spectrofluorometer (SPEX Industries Inc., Edison, N.J., USA) at room temperature with λex=480 nm (slid width 2.5 mm) and λem=592 nm (slid width 2.5 mm). […] The concentration of bound drug was calculated by the difference between CT and Cf. Binding constants (Ki) and exclusion parameters (n) were calculated by plotting r/Cf versus r (Scatchard plot), where r is the number of moles of bound drug per mol DNA base pairs. Theoretical curves for the neighbor exclusion model were calculated by using the algorithm: r/Cf=Ki(1−nr)[(1−nr)/[1−(n−1)r]]^n−1 (J. Mol. Biol. 86, 469-489, 1974) […]

## COc1cccc2c1C(=O)c1c(O)c3c(c(O)c1C2=O)C[C@@](O)(C(C)=O)C[C@@H]3O[C@H]1C[C@@H](NCc2ccc(O)c(I)c2)[C@H](O)C(C)O1 (some centres unmarked) [Compound 2, 3′-N-(4-Hydroxy-3-iodobenzyl)daunorubicin]
  Ki (intrinsic binding constant): 3.0 ^a × 10^6 M^−1

## COc1cccc2c1C(=O)c1c(O)c3c(c(O)c1C2=O)C[C@@](O)(C(C)O)C[C@@H]3O[C@H]1C[C@@H](NCc2ccc(O)c(I)c2)[C@H](O)C(C)O1 (mixture of isomers) [Compound 1, 3′-N-(4-hydroxy-3-iodobenzyl)-13-(R/S)-dihydrodaunorubicin]
  Ki (intrinsic binding constant): 3.3 ^a × 10^6 M^−1
